From PMC3143158

Protein sequences, listed by entry. Tags and fused reporters are not part of them. Lines headed by an entry give the natural chain unless they say otherwise; changes in a name come on top.
UniProt O15169: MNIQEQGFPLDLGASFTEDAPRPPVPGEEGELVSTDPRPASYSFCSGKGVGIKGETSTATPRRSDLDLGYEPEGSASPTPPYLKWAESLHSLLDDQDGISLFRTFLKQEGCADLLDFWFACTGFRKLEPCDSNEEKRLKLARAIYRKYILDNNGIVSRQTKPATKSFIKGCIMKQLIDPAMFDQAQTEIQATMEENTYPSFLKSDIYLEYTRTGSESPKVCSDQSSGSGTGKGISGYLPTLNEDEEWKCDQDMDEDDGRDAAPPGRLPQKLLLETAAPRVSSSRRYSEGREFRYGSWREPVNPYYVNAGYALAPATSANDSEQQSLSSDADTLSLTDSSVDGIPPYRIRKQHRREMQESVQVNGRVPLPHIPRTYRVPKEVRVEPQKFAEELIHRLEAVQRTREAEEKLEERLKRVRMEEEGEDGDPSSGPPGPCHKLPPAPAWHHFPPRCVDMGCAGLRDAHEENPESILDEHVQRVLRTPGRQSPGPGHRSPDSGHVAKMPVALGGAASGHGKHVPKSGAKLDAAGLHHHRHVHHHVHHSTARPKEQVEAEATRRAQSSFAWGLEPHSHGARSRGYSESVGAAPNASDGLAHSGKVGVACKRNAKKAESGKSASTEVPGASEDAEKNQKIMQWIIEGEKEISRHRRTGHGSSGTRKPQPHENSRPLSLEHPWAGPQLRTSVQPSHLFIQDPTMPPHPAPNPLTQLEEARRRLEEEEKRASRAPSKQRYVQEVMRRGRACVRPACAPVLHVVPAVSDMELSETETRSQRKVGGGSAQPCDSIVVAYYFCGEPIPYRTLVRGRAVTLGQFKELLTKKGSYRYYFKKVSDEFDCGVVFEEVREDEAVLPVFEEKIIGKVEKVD
UniProt P09874: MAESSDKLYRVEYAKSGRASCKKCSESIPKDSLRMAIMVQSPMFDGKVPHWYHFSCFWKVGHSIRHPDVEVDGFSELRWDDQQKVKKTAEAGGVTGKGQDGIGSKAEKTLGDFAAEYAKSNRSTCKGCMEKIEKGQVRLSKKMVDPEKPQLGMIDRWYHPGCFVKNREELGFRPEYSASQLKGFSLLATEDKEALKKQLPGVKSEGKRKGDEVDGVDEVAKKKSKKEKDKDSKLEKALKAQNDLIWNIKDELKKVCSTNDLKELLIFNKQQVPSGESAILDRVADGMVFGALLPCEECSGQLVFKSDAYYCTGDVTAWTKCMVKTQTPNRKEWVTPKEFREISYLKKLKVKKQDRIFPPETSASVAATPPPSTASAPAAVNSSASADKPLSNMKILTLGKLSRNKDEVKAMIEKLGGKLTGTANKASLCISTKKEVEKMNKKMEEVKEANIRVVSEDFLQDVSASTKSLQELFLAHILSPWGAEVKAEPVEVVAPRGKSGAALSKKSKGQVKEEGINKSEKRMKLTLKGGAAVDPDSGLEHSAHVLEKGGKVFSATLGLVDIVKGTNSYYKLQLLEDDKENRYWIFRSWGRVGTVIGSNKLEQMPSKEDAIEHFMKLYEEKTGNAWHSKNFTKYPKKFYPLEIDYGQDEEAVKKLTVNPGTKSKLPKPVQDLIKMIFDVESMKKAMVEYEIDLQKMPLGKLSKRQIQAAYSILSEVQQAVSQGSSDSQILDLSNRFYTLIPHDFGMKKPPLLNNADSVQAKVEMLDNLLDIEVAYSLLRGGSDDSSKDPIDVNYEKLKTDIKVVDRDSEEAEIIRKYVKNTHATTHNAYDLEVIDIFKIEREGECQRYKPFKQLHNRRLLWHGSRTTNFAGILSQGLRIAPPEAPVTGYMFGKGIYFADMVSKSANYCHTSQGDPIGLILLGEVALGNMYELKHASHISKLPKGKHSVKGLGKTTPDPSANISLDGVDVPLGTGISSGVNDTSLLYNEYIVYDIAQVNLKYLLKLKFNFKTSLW

Molecular target: flag-tagged AXIN1 (UniProt O15169)
Experiment: co-IP; immunoprecipitation of flag-AXIN1 from HEK293 cells co-transfected with HA-tagged RNF146, TNKS1 or PARP1 (wildtype or deletion alleles); anti-HA blot, short and long exposure

Substance	binding
HA-tagged RNF146ΔRING (from UniProt Q9NTX7-2) (domain or fragment)	binds
HA-tagged PARP1ΔPARP (from UniProt P09874) (domain or fragment)	no binding

These are yes or no findings as the source states them, for the method shown. Binding seen in cells or lysates may run through a third protein. Binding can be weak; no strength is given.
